Experimental data from the supplement of paper PMC10849652.
This is one part of the list.

Amino acid sequences for entries named in this document (tags omitted). A change or cut given only in a name is not applied to a line headed by its entry.
UniProt O95630, whole entry, looked up: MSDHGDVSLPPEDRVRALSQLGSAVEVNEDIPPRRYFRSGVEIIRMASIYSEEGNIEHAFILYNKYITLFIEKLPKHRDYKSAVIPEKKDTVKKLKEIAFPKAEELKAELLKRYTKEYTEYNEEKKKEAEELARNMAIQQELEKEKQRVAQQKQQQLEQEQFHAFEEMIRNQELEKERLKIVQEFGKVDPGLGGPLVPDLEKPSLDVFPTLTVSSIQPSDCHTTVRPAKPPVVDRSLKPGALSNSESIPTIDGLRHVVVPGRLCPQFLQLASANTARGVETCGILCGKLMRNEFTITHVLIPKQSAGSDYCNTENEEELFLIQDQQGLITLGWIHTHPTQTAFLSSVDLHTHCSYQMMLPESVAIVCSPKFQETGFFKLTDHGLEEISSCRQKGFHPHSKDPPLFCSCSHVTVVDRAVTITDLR
UniProt Q9UHB9: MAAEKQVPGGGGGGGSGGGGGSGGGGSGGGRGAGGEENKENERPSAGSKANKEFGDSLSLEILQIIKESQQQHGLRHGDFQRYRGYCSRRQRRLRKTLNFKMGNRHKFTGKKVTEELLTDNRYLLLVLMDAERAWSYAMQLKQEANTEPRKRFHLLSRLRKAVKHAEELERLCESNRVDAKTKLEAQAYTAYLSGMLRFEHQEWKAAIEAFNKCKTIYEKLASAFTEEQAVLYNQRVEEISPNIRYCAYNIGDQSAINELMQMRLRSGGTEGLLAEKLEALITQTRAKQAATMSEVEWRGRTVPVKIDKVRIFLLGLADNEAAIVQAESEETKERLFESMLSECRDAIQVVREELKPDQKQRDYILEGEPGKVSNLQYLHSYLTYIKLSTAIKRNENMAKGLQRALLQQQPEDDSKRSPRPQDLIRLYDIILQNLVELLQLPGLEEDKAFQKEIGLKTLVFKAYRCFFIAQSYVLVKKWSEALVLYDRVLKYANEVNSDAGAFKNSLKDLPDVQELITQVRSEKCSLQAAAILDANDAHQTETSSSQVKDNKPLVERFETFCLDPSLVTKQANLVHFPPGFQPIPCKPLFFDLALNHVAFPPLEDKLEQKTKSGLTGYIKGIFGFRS
UniProt Q9H254, whole entry, looked up: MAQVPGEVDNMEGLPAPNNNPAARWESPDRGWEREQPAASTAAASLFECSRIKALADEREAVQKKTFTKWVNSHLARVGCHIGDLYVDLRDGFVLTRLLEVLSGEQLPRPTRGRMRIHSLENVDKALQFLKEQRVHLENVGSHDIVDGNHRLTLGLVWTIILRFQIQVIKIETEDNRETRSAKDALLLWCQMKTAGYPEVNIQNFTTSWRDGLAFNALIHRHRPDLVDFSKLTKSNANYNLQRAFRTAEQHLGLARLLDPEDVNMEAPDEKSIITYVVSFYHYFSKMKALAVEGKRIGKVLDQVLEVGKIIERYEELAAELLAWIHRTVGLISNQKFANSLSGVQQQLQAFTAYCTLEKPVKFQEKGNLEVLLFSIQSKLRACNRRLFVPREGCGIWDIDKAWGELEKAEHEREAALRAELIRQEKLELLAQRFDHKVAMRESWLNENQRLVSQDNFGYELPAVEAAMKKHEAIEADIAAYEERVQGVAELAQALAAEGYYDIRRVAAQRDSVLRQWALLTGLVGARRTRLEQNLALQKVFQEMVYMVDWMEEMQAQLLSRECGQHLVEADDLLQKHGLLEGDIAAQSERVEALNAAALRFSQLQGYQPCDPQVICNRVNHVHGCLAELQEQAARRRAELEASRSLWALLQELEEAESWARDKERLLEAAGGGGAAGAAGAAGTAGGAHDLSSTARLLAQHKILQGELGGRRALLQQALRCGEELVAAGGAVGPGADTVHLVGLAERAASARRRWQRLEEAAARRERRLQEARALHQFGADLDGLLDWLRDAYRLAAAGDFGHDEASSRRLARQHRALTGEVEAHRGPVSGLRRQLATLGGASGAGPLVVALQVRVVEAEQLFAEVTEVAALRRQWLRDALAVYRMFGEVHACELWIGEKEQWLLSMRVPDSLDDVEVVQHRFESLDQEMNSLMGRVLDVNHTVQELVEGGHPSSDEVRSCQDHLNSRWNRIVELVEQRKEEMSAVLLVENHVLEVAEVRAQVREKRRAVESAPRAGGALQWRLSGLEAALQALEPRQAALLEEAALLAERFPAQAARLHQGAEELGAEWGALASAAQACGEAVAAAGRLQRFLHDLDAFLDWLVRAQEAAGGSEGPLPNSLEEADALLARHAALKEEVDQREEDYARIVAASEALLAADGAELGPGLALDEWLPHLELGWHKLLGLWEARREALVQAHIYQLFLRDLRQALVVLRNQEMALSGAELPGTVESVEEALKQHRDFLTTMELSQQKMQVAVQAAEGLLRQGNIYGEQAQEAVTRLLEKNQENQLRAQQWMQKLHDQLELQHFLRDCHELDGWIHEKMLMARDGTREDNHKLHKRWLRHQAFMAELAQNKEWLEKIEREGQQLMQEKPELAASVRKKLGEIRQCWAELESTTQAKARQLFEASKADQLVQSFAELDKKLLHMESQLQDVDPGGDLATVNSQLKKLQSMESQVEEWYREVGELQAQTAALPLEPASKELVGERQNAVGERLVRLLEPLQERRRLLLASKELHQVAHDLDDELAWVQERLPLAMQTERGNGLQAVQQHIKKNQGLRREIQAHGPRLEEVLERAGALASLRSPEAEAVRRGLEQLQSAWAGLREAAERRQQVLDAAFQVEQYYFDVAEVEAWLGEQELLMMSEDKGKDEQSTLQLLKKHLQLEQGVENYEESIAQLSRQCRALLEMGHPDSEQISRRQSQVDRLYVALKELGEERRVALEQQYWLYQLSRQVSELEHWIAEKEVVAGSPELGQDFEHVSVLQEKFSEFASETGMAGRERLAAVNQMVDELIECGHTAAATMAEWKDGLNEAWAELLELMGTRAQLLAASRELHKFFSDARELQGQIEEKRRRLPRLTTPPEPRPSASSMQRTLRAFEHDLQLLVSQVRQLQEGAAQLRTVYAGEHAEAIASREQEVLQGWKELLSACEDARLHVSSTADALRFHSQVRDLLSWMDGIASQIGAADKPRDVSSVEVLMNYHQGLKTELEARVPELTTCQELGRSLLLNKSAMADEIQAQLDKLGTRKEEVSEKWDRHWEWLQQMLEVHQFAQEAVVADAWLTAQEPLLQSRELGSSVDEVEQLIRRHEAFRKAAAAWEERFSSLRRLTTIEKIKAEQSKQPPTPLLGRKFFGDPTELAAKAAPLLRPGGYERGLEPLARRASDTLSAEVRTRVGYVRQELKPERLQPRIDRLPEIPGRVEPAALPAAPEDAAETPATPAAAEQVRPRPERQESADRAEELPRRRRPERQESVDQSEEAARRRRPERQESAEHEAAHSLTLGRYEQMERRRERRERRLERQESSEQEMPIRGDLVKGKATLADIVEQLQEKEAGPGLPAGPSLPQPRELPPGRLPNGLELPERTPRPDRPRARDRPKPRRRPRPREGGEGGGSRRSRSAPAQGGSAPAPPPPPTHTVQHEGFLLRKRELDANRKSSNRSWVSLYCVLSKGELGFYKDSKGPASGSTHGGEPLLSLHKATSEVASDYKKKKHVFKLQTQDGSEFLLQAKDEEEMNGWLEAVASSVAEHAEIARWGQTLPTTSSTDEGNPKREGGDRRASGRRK
UniProt Q13586, whole entry, looked up: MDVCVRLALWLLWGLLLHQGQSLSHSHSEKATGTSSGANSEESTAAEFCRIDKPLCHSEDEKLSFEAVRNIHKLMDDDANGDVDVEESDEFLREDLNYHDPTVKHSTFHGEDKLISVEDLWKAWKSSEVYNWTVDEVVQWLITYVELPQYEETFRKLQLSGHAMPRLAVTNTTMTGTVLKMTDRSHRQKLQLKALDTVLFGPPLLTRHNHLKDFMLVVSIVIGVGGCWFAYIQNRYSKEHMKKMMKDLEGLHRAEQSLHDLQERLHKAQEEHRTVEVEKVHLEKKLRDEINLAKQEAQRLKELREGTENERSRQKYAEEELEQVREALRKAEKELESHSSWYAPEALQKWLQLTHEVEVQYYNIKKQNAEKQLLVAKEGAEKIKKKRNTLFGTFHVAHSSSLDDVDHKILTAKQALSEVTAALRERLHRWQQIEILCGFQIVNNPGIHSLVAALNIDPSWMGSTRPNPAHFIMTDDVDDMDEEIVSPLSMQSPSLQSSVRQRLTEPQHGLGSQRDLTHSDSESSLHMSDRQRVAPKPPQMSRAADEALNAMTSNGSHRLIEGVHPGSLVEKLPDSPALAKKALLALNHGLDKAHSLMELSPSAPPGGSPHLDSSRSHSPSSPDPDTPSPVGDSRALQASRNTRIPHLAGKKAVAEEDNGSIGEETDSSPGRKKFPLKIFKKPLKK
UniProt Q69YQ0: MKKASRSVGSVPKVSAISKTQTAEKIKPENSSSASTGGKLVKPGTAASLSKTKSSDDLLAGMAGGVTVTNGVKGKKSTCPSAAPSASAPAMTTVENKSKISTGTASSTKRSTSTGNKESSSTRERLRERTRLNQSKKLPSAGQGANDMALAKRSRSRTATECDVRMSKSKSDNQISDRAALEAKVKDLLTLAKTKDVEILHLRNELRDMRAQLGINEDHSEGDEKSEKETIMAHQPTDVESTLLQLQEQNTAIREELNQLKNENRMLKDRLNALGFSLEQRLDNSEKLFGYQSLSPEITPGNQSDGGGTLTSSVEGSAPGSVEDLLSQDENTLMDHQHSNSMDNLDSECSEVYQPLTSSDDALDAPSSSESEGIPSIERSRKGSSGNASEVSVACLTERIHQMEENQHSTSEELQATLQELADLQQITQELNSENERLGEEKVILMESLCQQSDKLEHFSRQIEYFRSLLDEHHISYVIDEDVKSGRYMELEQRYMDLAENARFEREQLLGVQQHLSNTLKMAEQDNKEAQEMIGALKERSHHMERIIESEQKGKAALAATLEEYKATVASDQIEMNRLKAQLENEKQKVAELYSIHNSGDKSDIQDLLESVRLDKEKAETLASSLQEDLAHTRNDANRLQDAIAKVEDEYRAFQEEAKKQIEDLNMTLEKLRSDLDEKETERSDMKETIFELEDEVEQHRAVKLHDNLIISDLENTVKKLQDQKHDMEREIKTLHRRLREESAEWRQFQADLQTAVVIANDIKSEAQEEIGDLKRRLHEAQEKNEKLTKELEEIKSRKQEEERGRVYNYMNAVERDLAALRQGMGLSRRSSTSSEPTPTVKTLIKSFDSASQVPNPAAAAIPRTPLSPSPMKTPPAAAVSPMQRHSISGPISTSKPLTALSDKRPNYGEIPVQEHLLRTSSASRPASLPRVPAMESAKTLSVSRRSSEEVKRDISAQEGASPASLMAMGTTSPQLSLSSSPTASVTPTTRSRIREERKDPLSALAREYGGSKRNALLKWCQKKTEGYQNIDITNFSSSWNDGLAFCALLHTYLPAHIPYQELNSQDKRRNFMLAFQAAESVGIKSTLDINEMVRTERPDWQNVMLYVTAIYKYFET
UniProt Q5M775: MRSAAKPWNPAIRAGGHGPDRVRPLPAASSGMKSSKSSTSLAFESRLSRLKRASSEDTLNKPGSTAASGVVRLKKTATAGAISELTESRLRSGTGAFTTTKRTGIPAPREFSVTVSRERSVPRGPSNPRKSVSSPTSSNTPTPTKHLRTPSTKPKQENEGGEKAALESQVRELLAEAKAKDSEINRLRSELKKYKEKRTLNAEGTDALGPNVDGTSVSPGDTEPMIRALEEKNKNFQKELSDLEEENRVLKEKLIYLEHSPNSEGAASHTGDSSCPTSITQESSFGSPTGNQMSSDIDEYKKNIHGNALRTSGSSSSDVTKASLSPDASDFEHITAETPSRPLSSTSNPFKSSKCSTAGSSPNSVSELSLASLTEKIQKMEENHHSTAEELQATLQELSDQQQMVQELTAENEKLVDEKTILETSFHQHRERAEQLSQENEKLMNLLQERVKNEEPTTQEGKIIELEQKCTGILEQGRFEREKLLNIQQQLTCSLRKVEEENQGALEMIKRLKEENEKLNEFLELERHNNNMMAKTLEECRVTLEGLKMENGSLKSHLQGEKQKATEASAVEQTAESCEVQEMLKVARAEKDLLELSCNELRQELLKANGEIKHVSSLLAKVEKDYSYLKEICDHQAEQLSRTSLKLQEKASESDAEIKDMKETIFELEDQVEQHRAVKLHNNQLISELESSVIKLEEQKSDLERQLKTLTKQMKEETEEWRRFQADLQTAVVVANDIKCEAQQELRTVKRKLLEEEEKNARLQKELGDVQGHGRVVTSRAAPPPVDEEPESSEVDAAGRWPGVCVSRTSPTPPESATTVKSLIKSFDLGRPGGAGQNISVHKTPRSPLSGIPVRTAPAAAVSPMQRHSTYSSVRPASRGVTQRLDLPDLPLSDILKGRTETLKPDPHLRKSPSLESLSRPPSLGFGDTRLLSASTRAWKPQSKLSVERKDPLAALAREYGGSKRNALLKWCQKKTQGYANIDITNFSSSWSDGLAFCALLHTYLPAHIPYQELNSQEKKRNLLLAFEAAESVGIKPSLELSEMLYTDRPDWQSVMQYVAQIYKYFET

Key:
Assay in all cases: log2 fold change, soluble protein after heating vs DMSO (PISA); higher = thermal stabilisation; K562 cells, 10 uM, 30 min; active = over 0.2 and 3.5 SD of the protein, either way, in both replicates (recomputed)
[1] = compound: COC1=CC=C(C=C1)CN2C=CC3=C2C=C(C=C3)C(=O)NO
Method in brief: (§1)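 K562 cells at 2×10^6 cells/mL were exposed to 10 μM compound for 30 min, then aliquots were heated for 3 min across 48°C-58°C, pooled, and extracted in PBS containing 0.5% NP-40 at 4°C. The supernatant after 21,000xg for 90 min was taken as soluble protein and measured by TMTpro 16plex LC-MS/MS with channel sums equalised. Thermal stability is reported relative to control samples, with values from duplicates. Fold changes are given on a log2 scale.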

filanesib = compound: CON(C)C(=O)N1N=C(c2cc(F)ccc2F)S[C@@]1(CCCN)c1ccccc1 [filanesib]
Method in brief: as §1

zotarolimus = compound: CO[C@H]1C[C@@H]2CC[C@@H](C)[C@@](O)(O2)C(=O)C(=O)N2CCCC[C@H]2C(=O)O[C@H]([C@H](C)C[C@@H]2CC[C@H](n3cnnn3)[C@H](OC)C2)CC(=O)[C@H](C)/C=C(\C)[C@@H](O)[C@@H](OC)C(=O)[C@H](C)C[C@H](C)/C=C/C=C/C=C/1C [zotarolimus]
Method in brief: as §1

idasanutlin = compound: COc1cc(C(=O)O)ccc1NC(=O)[C@@H]1N[C@@H](CC(C)(C)C)[C@](C#N)(c2ccc(Cl)cc2F)[C@H]1c1cccc(Cl)c1F [idasanutlin]
Method in brief: as §1

alisertib = compound: COc1cc(Nc2ncc3c(n2)-c2ccc(Cl)cc2C(c2c(F)cccc2OC)=NC3)ccc1C(=O)O [alisertib]
Method in brief: as §1

[2] = compound: COc1cc2nc(-c3cc(F)ccc3O)nc(N[C@@H]3CNC[C@H]3C(C)(C)O)c2cc1OC
Method in brief: as §1

gefitinib = compound: COc1cc2ncnc(Nc3ccc(F)c(Cl)c3)c2cc1OCCCN1CCOCC1 [gefitinib]
Method in brief: as §1

[3] = compound: COc1cccc2cc(-c3nc([C@H]4CC[C@H](C(=O)O)CC4)n4ncnc(N)c34)[nH]c12
Method in brief: as §1

lapatinib = compound: CS(=O)(=O)CCNCc1ccc(-c2ccc3ncnc(Nc4ccc(OCc5cccc(F)c5)c(Cl)c4)c3c2)o1 [lapatinib]
Method in brief: as §1

pictilisib = compound: CS(=O)(=O)N1CCN(Cc2cc3nc(-c4cccc5[nH]ncc45)nc(N4CCOCC4)c3s2)CC1 [pictilisib]
Method in brief: as §1

Measured: log2 fold change

STAMBP (UniProt O95630)
inactive: [1] -0.011 | filanesib 0.021 | zotarolimus 0.049 | idasanutlin -0.001 | alisertib -0.053 | [2] 0.061 | gefitinib 0.025 | [3] -0.067 | lapatinib -0.04 | pictilisib 0.045

STK11IP (UniProt Q8N1F8)
inactive: [1] -0.029 | filanesib 0.042 | zotarolimus 0.195 | idasanutlin 0.044 | alisertib -0.131 | [2] -0.172 | gefitinib -0.072 | [3] -0.139 | lapatinib -0.088 | pictilisib 0.117

STK25 (UniProt O00506)
inactive: [1] -0.06 | filanesib -0.006 | zotarolimus -0.039 | idasanutlin 0.006 | alisertib -0.055 | [2] 0.076 | gefitinib -0.061 | [3] 0.038 | lapatinib -0.047 | pictilisib 0.053

SRPRB (UniProt Q9Y5M8)
inactive: [1] 0.133 | filanesib -0.076 | zotarolimus 0.018 | idasanutlin -0.11 | alisertib -0.021 | [2] 0.136 | gefitinib -0.001 | [3] -0.03 | lapatinib 0.048 | pictilisib -0.022

SQLE (UniProt Q14534)
inactive: [1] 0.025 | filanesib 0.032 | zotarolimus 0.141 | idasanutlin -0.026 | alisertib -0.028 | [2] -0.021 | gefitinib -0.024 | [3] -0.031 | lapatinib -0.087 | pictilisib 0.051

SRP68 (UniProt Q9UHB9)
inactive: [1] 0.024 | filanesib 0.066 | zotarolimus 0.043 | idasanutlin -0.036 | alisertib -0.029 | [2] 0.016 | gefitinib 0.008 | [3] -0.126 | lapatinib -0.011 | pictilisib -0.054

SRM (UniProt P19623)
inactive: [1] -0.001 | filanesib -0.118 | zotarolimus 0.012 | idasanutlin -0.086 | alisertib -0.117 | [2] -0.005 | gefitinib 0.01 | [3] 0.025 | lapatinib -0.003 | pictilisib 0.073

SPTBN4 (UniProt Q9H254)
inactive: [1] -0.036 | filanesib -0.068 | zotarolimus 0.014 | idasanutlin -0.237 | alisertib -0.116 | [2] -0.202 | gefitinib -0.047 | [3] 0.158 | lapatinib 0.041 | pictilisib 0.175

STIM1 (UniProt Q13586)
inactive: [1] 0.048 | filanesib -0.123 | zotarolimus 0.041 | idasanutlin 0.02 | alisertib -0.029 | [2] -0.218 | gefitinib 0 | [3] 0.037 | lapatinib -0.011 | pictilisib 0.036

STIP1 isoform 2 (UniProt P31948)
inactive: [1] 0.061 | filanesib -0.062 | zotarolimus -0.005 | idasanutlin -0.012 | alisertib -0.045 | [2] 0.011 | gefitinib -0.001 | [3] 0.008 | lapatinib -0.019 | pictilisib -0.028

SRSF5 (UniProt Q13243)
inactive: [1] -0.04 | filanesib 0.308 | zotarolimus 0.143 | idasanutlin 0.036 | alisertib -0.109 | [2] -0.043 | gefitinib -0.038 | [3] -0.12 | lapatinib 0.133 | pictilisib -0.025

SPECC1L (UniProt Q69YQ0)
inactive: [1] -0.029 | filanesib 0.013 | zotarolimus 0.076 | idasanutlin 0.058 | alisertib -0.036 | [2] 0.039 | gefitinib -0.005 | [3] 0.026 | lapatinib -0.061 | pictilisib 0.056

SPECC1 (UniProt Q5M775)
active: [1] -0.357 | [3] 0.309
inactive: filanesib 0.064 | zotarolimus 0.038 | idasanutlin -0.111 | alisertib -0.019 | [2] -0.014 | gefitinib 0.028 | lapatinib -0.006 | pictilisib 0.08

SPG11 (UniProt Q96JI7)
inactive: [1] -0.232 | filanesib 0.158 | zotarolimus -0.415 | idasanutlin -0.118 | alisertib 0.388 | [2] 0.14 | gefitinib -0.032 | [3] 0.331 | lapatinib -0.167 | pictilisib 0.401
